Laboratory results taken from paper PMC12830637.
No constants are given. Whether binding was seen depends on the method and setting. Binding seen in cells or lysates may run through a third protein. Some binding calls cover weakened binding; strength is not graded here.

Protein sequences, listed by entry. Tags and fused reporters are not part of them.
UniProt Q13547: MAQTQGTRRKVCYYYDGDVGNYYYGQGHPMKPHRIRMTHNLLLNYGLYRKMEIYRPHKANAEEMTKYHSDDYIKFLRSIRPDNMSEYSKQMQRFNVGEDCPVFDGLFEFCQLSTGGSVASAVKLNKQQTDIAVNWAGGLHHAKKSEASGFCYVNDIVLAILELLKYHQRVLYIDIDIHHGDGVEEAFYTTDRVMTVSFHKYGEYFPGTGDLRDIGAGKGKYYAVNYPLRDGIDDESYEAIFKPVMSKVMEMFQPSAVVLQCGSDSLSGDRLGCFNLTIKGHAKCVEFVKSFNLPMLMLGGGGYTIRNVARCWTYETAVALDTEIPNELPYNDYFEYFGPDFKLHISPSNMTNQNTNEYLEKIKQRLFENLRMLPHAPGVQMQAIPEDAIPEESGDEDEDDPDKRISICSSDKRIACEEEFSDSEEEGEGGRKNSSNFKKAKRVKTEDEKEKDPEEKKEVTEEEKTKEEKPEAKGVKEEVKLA

Key:
[1] = molecular target: Histone Deacetylase 1 (HDAC1) (human (endogenous in HUVECs)) (UniProt Q13547); assay: co-IP; HUVEC lysate (50 mM Tris-HCl pH 7.4, 100 mM NaCl, 10% glycerol, 0.5% NP-40, 1 mM DTT, 1 mM PMSF); IP with anti-HDAC1 antibody or non-specific IgG, 4 °C 12-16 h, Protein A/G magnetic beads; western blot; cells treated with 5 μM Yoda1 for 2 h or untreated
[2] = molecular target: Histone Deacetylase 1 (HDAC1) (human (endogenous in HUVECs)) (UniProt Q13547); assay: proximity ligation; Duolink In Situ Red kit on fixed HUVECs; primary antibodies against NFAT2 (1:50) and HDAC1 (1:50); cells treated with 5 μM Yoda1 for 2 h, with or without FK506 pretreatment

- binding [1]: binds
- binding [2]: binds
B1: Nuclear Factor of Activated T-cells 2 (NFAT2) (protein, UniProt O95644 1-943)
chain: MPSTSFPVPSKFPLGPAAAVFGRGETLGPAPRAGGTMKSAEEEHYGYASSNVSPALPLPTAHSTLPAPCHNLQTSTPGIIPPADHPSGYGAALDGGPAGYFLSSGHTRPDGAPALESPRIEITSCLGLYHNNNQFFHDVEVEDVLPSSKRSPSTATLSLPSLEAYRDPSCLSPASSLSSRSCNSEASSYESNYSYPYASPQTSPWQSPCVSPKTTDPEEGFPRGLGACTLLGSPRHSPSTSPRASVTEESWLGARSSRPASPCNKRKYSLNGRQPPYSPHHSPTPSPHGSPRVSVTDDSWLGNTTQYTSSAIVAAINALTTDSSLDLGDGVPVKSRKTTLEQPPSVALKVEPVGEDLGSPPPPADFAPEDYSSFQHIRKGGFCDQYLAVPQHPYQWAKPKPLSPTSYMSPTLPALDWQLPSHSGPYELRIEVQPKSHHRAHYETEGSRGAVKASAGGHPIVQLHGYLENEPLMLQLFIGTADDRLLRPHAFYQVHRITGKTVSTTSHEAILSNTKVLEIPLLPENSMRAVIDCAGILKLRNSDIELRKGETDIGRKNTRVRLVFRVHVPQPSGRTLSLQVASNPIECSQRSAQELPLVEKQSTDSYPVVGGKKMVLSGHNFLQDSKVIFVEKAPDGHHVWEMEAKTDRDLCKPNSLVVEIPPFRNQRITSPVHVSFYVCNGKRKRSQYQRFTYLPANVPIIKTEPTDDYEPAPTCGPVSQGLSPLPRPYYSQQLAMPPDPSSCLVAGFPPCPQRSTLMPAAPGVSPKLHDLSPAAYTKGVASPGHCHLGLPQPAGEAPAVQDVPRPVATHPGSPGQPPPALLPQQVSAPPSSSCPPGLEHSLCPSSPSPPLPPATQEPTCLQPCSPACPPATGRPQHLPSTVRRDESPTAGPRLLPEVHEDGSPNLAPIPVTVKREPEELDQLYLDDVNEIIRNDLSSTSTHS
